No constants are given. Whether binding was seen depends on the method and setting. In cells and extracts the contact can be indirect.
Target: T1, PDZ domain-containing RING-finger protein 3 (UniProt Q69ZS0)
T1 sequence: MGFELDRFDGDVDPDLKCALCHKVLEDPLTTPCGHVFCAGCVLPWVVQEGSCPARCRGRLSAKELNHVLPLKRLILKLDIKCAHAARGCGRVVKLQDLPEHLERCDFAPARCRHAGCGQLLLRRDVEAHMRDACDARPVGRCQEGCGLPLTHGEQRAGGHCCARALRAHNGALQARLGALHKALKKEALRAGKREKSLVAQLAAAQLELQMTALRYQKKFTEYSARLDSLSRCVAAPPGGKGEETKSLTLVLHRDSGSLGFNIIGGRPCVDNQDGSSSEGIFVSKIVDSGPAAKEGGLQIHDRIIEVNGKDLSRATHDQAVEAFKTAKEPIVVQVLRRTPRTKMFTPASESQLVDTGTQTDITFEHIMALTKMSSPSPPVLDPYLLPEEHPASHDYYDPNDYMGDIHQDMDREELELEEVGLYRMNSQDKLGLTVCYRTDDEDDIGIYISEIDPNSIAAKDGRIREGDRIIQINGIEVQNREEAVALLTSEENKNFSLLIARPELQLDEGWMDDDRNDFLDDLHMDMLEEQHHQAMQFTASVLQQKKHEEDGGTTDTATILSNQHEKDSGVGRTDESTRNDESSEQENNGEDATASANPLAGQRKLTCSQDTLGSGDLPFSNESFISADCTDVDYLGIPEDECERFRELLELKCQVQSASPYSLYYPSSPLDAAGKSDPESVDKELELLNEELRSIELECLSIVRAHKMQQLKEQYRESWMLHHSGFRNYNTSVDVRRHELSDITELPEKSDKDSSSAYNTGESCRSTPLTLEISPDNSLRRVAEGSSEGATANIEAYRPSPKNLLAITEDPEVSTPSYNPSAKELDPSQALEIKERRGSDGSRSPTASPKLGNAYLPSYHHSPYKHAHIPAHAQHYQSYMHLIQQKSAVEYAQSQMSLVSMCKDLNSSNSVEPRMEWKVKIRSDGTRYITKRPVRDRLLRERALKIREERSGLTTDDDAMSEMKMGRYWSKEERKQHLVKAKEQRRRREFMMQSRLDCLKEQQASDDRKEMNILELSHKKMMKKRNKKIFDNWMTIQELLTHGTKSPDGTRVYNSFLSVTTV
Experiment: co-IP; immunoprecipitation; cells, antibodies and conditions not told in the main text (Supplementary Fig. S2)

Sequences of proteins named here, by UniProt entry; tags and fusion partners are left off.
UniProt P51943: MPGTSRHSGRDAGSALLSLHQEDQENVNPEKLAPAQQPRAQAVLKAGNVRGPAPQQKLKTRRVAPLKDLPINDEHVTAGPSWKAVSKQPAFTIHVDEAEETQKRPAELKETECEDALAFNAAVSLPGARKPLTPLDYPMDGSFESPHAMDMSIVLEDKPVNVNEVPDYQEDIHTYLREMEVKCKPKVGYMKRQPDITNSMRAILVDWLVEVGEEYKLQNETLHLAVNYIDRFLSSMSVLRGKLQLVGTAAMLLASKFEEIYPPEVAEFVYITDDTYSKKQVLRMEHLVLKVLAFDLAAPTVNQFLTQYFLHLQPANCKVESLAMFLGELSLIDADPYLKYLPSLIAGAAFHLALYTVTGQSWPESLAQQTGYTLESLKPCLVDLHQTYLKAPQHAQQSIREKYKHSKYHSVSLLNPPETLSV

Substance: cyclin A2 (from UniProt P51943 1-422)
- binding: no binding
